# Assay results as given in paper PMC7819943, “Rice protein-binding microarrays: a tool to detect cis-acting elements near promoter regions in rice”.
# The list shows a part of the results.
# Target: T1, OsSMF1 (Oryza sativa, UniProt Q6ZLB0 1-436)
# T1 sequence: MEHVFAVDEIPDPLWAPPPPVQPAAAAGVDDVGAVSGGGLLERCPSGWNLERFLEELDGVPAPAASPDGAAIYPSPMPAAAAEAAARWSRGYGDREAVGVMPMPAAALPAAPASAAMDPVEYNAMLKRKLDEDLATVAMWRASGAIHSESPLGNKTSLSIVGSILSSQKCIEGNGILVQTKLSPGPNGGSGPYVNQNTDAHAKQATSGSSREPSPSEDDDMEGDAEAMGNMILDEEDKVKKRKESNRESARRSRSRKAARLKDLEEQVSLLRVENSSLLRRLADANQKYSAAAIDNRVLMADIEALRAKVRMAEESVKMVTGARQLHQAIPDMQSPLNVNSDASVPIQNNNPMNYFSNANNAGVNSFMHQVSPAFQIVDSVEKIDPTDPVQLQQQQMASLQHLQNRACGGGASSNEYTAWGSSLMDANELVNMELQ
# Test: protein-binding microarray (RPBM); PBS, 2% BSA, 51.3 ng/ul salmon testes DNA, 50 uM zinc acetate, 200 nM TF, 25 C, 1 h; high values mean tight binding
# Details: protein: recombinant; tags: N-terminal polyhistidine and DsRed monomer fusion (pET32a); chain copies: 2; label: CyDye5-dUTP incorporated in the synthesized complementary strand; 3' TTTTT single-stranded linker to array surface; dsDNA, one strand shown
# In short: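 Binding signal is reported as fluorescence intensity per feature (arbitrary units) from an Axon 4000B scanner. Incubation used 200 nM of each Ni–NTA-purified, N-terminally polyhistidine- and DsRed-fused transcription factor from E. coli BL21-CodonPlus on a double-stranded custom Agilent array for 1 h at 25 °C, with 50 µM zinc acetate in the buffer, followed by washing.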
row,Sequence,binding signal
1,GCCCGTCCGTGCAGCAGCCTCGAGCGGCCGTGTCGTGCAGCGGAGTCACCTAGTGCAG,28000 fluorescence intensity (a.u.)
2,GATCTAGGGAACCTCCCTTAACCAACGGCCGATGACACGACGGAGTCACCTAGTGCAG,4380 fluorescence intensity (a.u.)
3,CCTTAAATTTTCCTAAATCCTTACCTACCGTCATTCTCTCCGGAGTCACCTAGTGCAG,47400 fluorescence intensity (a.u.)
4,ACCAGGAGACATGGAGGTAAGTATCTATGTACCTCTGTGTCGGAGTCACCTAGTGCAG,28300 fluorescence intensity (a.u.)
5,GTGGACACGTACTACACCGTGGTCCTCGACTCCGTCAAGGCGGAGTCACCTAGTGCAG,4220 fluorescence intensity (a.u.)
6,AATTCCCTGATGGCTCCCTGAAATTCCTCTGTTACAATTTCGGAGTCACCTAGTGCAG,28800 fluorescence intensity (a.u.)
7,GACAATCCAGTTGTCAAGTACAGCTATGCCTTACCATCAGCGGAGTCACCTAGTGCAG,4420 fluorescence intensity (a.u.)
8,AGAGGGGACTGGGGAGGGGAGGGGCGGCGCTCGCTGGCTTCGGAGTCACCTAGTGCAG,8090 fluorescence intensity (a.u.)
9,AGGGTGCCGGAGCTGCTGCTGTCGGTGGTGCCATCCTCCTCGGAGTCACCTAGTGCAG,5480 fluorescence intensity (a.u.)
10,ATTCTTTTGTCAAAGTGGAATAATGGCATACCGTAGTATTCGGAGTCACCTAGTGCAG,3910 fluorescence intensity (a.u.)
11,CTTTCAGTTTGTAACCACCGGATGACGCACGGACGGCTCGCGGAGTCACCTAGTGCAG,4360 fluorescence intensity (a.u.)
12,GTGCTGCGTCCTCCAATGACTACGATTCAACGACGGCAACCGGAGTCACCTAGTGCAG,3240 fluorescence intensity (a.u.)
13,CGATGTACATGGACTTCACGATGCAGCCGGGGTCGCAGCTCGGAGTCACCTAGTGCAG,3460 fluorescence intensity (a.u.)
14,CCACGCTAAAATTGGAAGTTTGACTAAAATTAGAAGTTTACGGAGTCACCTAGTGCAG,60200 fluorescence intensity (a.u.)
15,TGCAGAATTCCACATCCCCGCTGTATACACCGAGATCAACCGGAGTCACCTAGTGCAG,4120 fluorescence intensity (a.u.)
16,TTTGGTCGTCAAACAGTGATGACTCTCCTGGCCGCTGTCTCGGAGTCACCTAGTGCAG,3630 fluorescence intensity (a.u.)
17,CACTTGCTTATCTCAATCAACCACGTCATCTCTAATTTTACGGAGTCACCTAGTGCAG,18000 fluorescence intensity (a.u.)
18,ACGCGAAAGAAGACTGACTCAGATGGAGAACAACGTTTTGCGGAGTCACCTAGTGCAG,4110 fluorescence intensity (a.u.)
19,ACGTGTGCTGACGTACGGGATGACAATTCCAACTTTGCCTCGGAGTCACCTAGTGCAG,10700 fluorescence intensity (a.u.)
20,CACCGACACCGACCCGCCCAAATTAACGTGGCAAACTCCACGGAGTCACCTAGTGCAG,4670 fluorescence intensity (a.u.)
21,GTGGTAGAGGCGGCGGGGCGGGAGGTCGAACCGGAGCTGACGGAGTCACCTAGTGCAG,3140 fluorescence intensity (a.u.)
22,ACGCTGTCACAAGGCACACGTATGCAGAGCCCGAGCGCGACGGAGTCACCTAGTGCAG,5340 fluorescence intensity (a.u.)
23,ATTTTCCTAGGTGGATTGTACCATGATGCGCCACCTGGGACGGAGTCACCTAGTGCAG,3880 fluorescence intensity (a.u.)
24,TTCGAGCAACTCTACCTGGATCCAGACCAACCCCAGTAGACGGAGTCACCTAGTGCAG,50400 fluorescence intensity (a.u.)
25,CCACAACCCACCACCACGTCTAGGGTTCCGCCGCTCCTCCCGGAGTCACCTAGTGCAG,3160 fluorescence intensity (a.u.)
26,CATATATTGGTGTTGTGTGTGGGTGGGTGGGGCGGTGCTTCGGAGTCACCTAGTGCAG,7020 fluorescence intensity (a.u.)
27,ATTTGCTACCTATAATCTATAACATGTGGTCACTATGCGTCGGAGTCACCTAGTGCAG,3420 fluorescence intensity (a.u.)

row,Sequence,binding signal
1,GCGCCTGGCCAGCCAGAGCACCATGTCTGGTTTTGTATCCCGGAGTCACCTAGTGCAG,3310 fluorescence intensity (a.u.)
2,ACCACCCACCGGTTTCGGTTTCGCCCACCATTGGAGGCGACGGAGTCACCTAGTGCAG,3190 fluorescence intensity (a.u.)
3,TACAAACATTTCGCTTCCCACCGAGCCAAAATTTCGTCAGCGGAGTCACCTAGTGCAG,3670 fluorescence intensity (a.u.)
4,GACATGAGTCGACGCCTCCGACGTGGTGGAGAGTTGAGCGCGGAGTCACCTAGTGCAG,4520 fluorescence intensity (a.u.)
5,TTCCAGTCACGCCTTCTCCGTCCACGTTGCCATTACTTCACGGAGTCACCTAGTGCAG,5030 fluorescence intensity (a.u.)
6,GTTCTATTCTAAACCACAATTGAAGCTGACGAATTAAGTTCGGAGTCACCTAGTGCAG,3360 fluorescence intensity (a.u.)
7,GCGGGCGGAGGAGCTCGGGCGTGGGCGGGGAGGGCGGATCCGGAGTCACCTAGTGCAG,4310 fluorescence intensity (a.u.)
8,CCGCACATGTCAAATTCTAATTGGGTAAGGATGTCACACCCGGAGTCACCTAGTGCAG,3540 fluorescence intensity (a.u.)
9,AAGTTGGCATATGGGCCCCACATGCTGACCCAGTCGGTTGCGGAGTCACCTAGTGCAG,3150 fluorescence intensity (a.u.)
10,CTAGTGACACCAATTTGTAGTGTGTCATCTGCGGCCTAATCGGAGTCACCTAGTGCAG,4540 fluorescence intensity (a.u.)
11,AAAAGAGAAAATATCATTTGGTGAAATGGTGACGAGTTCCCGGAGTCACCTAGTGCAG,3290 fluorescence intensity (a.u.)
12,GTCATAGACGCGTGTGGACCCCACGTGTCATTGACATATGCGGAGTCACCTAGTGCAG,12300 fluorescence intensity (a.u.)
13,GCGGAGGAGGCAAGGAGATCAGGCGGCAGAGGAAAGGGGCCGGAGTCACCTAGTGCAG,3280 fluorescence intensity (a.u.)
14,GTGTGAGGTTCATGCTGGGCGGTGACGCGACGGCGGAGACCGGAGTCACCTAGTGCAG,6730 fluorescence intensity (a.u.)
15,CTCTTCTACAAATTGGACTTTGGTTATTTAGCTGGAAACTCGGAGTCACCTAGTGCAG,3920 fluorescence intensity (a.u.)
16,CAACCCCTGCCACCCAACACGTCTCCCTCTCCTTCCCTCTCGGAGTCACCTAGTGCAG,3510 fluorescence intensity (a.u.)
17,CCAATTATACTTGCCAATCTGCCGTCACCTCACCTGTTCTCGGAGTCACCTAGTGCAG,4950 fluorescence intensity (a.u.)
18,CTCGCTATCTGTCCCGGCTGGGTTGGTGACTCACCATCTTCGGAGTCACCTAGTGCAG,19800 fluorescence intensity (a.u.)
19,TCTTTCCCCTGCTGAGCGCGACTTCTTAATCATGACGGTGCGGAGTCACCTAGTGCAG,4030 fluorescence intensity (a.u.)
20,AAGTTAACTAATTATACAGATTGCGTGTAAATTGTGAGACCGGAGTCACCTAGTGCAG,3750 fluorescence intensity (a.u.)
21,TGACTTATATTGTGAAACGGAGGAAGTAGCTGATTGGCGTCGGAGTCACCTAGTGCAG,3170 fluorescence intensity (a.u.)
22,CCGTTATCTCTCCCGTGATGCGGCGTGGGGCCCACCACCACGGAGTCACCTAGTGCAG,4410 fluorescence intensity (a.u.)
23,CGAAGTCCAGGCAGGCGGCTCGCAGGAGCAGCTCAGCAGCCGGAGTCACCTAGTGCAG,5240 fluorescence intensity (a.u.)
24,TAAGGCAAAAGCCAAAATTCAAATATAGTTAAAATTAAAGCGGAGTCACCTAGTGCAG,7150 fluorescence intensity (a.u.)
25,TTGGAGGGATTTGGTTGAGGAATATGTATGACATGTGGTCCGGAGTCACCTAGTGCAG,3430 fluorescence intensity (a.u.)
26,CGGCTAGGGACGGGGACGACGCCGGAGTGGGTGGGGAAGGCGGAGTCACCTAGTGCAG,3200 fluorescence intensity (a.u.)
27,TTCAAACTATATGTGTATTTACATACTTAAATCTTTTATTCGGAGTCACCTAGTGCAG,27100 fluorescence intensity (a.u.)

# Looked up one by one from the entries so far, three records:
row,Sequence,binding signal
22,CCGTTATCTCTCCCGTGATGCGGCGTGGGGCCCACCACCACGGAGTCACCTAGTGCAG,4410 fluorescence intensity (a.u.)
8,CCGCACATGTCAAATTCTAATTGGGTAAGGATGTCACACCCGGAGTCACCTAGTGCAG,3540 fluorescence intensity (a.u.)
1,GCGCCTGGCCAGCCAGAGCACCATGTCTGGTTTTGTATCCCGGAGTCACCTAGTGCAG,3310 fluorescence intensity (a.u.)
